{"source": "patent EP0552142B2", "about": "“T CELL RECEPTOR PEPTIDES AS THERAPEUTICS FOR AUTOIMMUNE AND MALIGNANT DISEASE” (priority 1989, dated 1991)", "key": {"[1]": {"tested_on": "TCR Vβ8(39-59)", "format": "binding, rat"}, "[2]": {"tested_on": "TCR Vβ8 peptide selected line", "format": "cell-based, Lewis rats"}, "[3]": {"tested_on": "GPBP-selected line", "format": "cell-based, Lewis rats"}}, "note": "Several values for one entry are separate records, joined by “and”; a condition that tells them apart may be missing. Identical values can stand only once. Part of at least one peptide drawing is inferred or uncertain, most often the ends. Marks after values point to notes of the source that are not given here. Ends that are not written are not given here.", "data": [{"sequence": "DMGHGLRLIHYSYDVNSTEKG [TCR Vβ8(39-59)]", "values": [{"measurement": "Antisera Reactivity Against TCR Vβ8 (39-59)", "setting": "[1]", "value": "629 Absorbance (x 10^3) at 450-650 nm and 621 Absorbance (x 10^3) at 450-650 nm"}, {"measurement": "absorbance of immune serum", "setting": "[1]", "value": "0.63 ± 0.12", "unit": "units"}, {"measurement": "Proliferation, TCR Peptide Selected Line", "setting": "[2]", "value": 52, "unit": "cpm x 10^-3"}, {"measurement": "T Cell Proliferation, TCR Vβ8 peptide selected line", "setting": "[2]", "value": 100, "unit": "cpm x 10^-3"}, {"measurement": "proliferative response of peptide-selected T cells", "setting": "[2]", "value": 85}, {"measurement": "Proliferation, GPBP Selected Line", "setting": "[3]", "value": 6, "unit": "cpm x 10^-3"}, {"measurement": "T Cell Proliferation, GPBP-selected line", "setting": "[3]", "value": 1, "unit": "cpm x 10^-3"}]}]}
